PubChem BioAssay AID1259308, NCATS | 2017
Aim: 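Genes whose loss raises luciferase production in HEK293 cells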 (primary screen). Cells: human HEK293 embryonic kidney cells stably expressing firefly luciferase (HEK-CMV-Luc2-Hygro). Knock-down reagent: single siRNA against human genes, 0.8 pmol siRNA per well. Duration: 72 h. Measurement: 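Luciferase light (ONE-Glo) measured on one replicate plate set and viability (CellTiter-Glo) on the other, scaled to a negative control siRNA, with robust z-scores and luciferase per cell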. Direction: total luciferase, z-score and total luciferase, % of control: higher = more reporter protein produced; luciferase per cell, z-score: higher = more reporter output per viable cell; viable cells, % of control: higher = more viable cells. Active means: 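Active when the median/MAD z-score for overall luciferase is greater than 3; a gene was taken forward for validation with new siRNAs if at least two of its three siRNAs passed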. Meaning of the calls: active = raised luciferase; inactive = no rise.
This is an unselected part of about 59,000 reagents. About 1,510 of all reagents (2.6%) were called active. 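Calls use total luciferase alone and ignore viability, so some active siRNAs may act by altering cell number.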 Reagents against one gene are numbered here. Reagent sequences are not shown.

| gene | reagent | total luciferase, z-score | total luciferase, % of control | luciferase per cell, z-score | viable cells, % of control | outcome |
| --- | --- | --- | --- | --- | --- | --- |
| NBAS | 1 | 0.479 | 91.4 | -0.109 | 105 | inactive |
| NBAS | 2 | -1.27 | 56.6 | -2.31 | 116 | inactive |
| NBAS | 3 | 1.94 | 121 | 1.37 | 93.9 | inactive |
| NXPE4 | 1 | 0.269 | 87.2 | -0.107 | 100 | inactive |
| NXPE4 | 2 | -0.0365 | 81.2 | 0.142 | 87.4 | inactive |
| NXPE4 | 3 | 0.973 | 101 | 1.18 | 82.9 | inactive |
| CTNNBIP1 | 1 | -0.00585 | 81.8 | -0.721 | 110 | inactive |
| CTNNBIP1 | 2 | -0.317 | 75.6 | 0.275 | 78.6 | inactive |
| CTNNBIP1 | 3 | -0.33 | 75.3 | 0.451 | 74.7 | inactive |
| DEFB113 | 1 | 0.538 | 92.6 | 0.406 | 93 | inactive |
| DEFB113 | 2 | 0.0819 | 83.5 | 1.07 | 70.3 | inactive |
| DEFB113 | 3 | 3.81 | 158 | 3.34 | 73.1 | active |
| MTCH1 | 1 | -1.48 | 52.4 | -1.13 | 78.8 | inactive |
| MTCH1 | 2 | -1.12 | 59.7 | -1.56 | 101 | inactive |
| MTCH1 | 3 | -1.16 | 58.9 | -0.0671 | 67 | inactive |
| LINC02860 | 1 | 0.175 | 85.4 | 0.318 | 87.7 | inactive |
| LINC02860 | 2 | -0.958 | 62.8 | -0.265 | 75.3 | inactive |
| LINC02860 | 3 | 2.03 | 122 | 1.96 | 81.6 | inactive |
| RNF38 | 1 | -0.0292 | 81.3 | -0.389 | 101 | inactive |
| RNF38 | 2 | -0.0875 | 80.1 | 0.341 | 81.9 | inactive |
| RNF38 | 3 | 0.5 | 91.8 | 0.349 | 93.6 | inactive |
| FTMT | 1 | 0.578 | 93.4 | 1.38 | 72.6 | inactive |
| FTMT | 2 | 0.301 | 87.9 | 0.074 | 96.3 | inactive |
| FTMT | 3 | 1.05 | 103 | 0.573 | 98.7 | inactive |
| KRT6B | 1 | -0.18 | 78.3 | -0.268 | 93.9 | inactive |
| KRT6B | 2 | 1.84 | 119 | 2.06 | 76.9 | inactive |
| KRT6B | 3 | -0.903 | 63.9 | -1.3 | 101 | inactive |
| KCNJ16 | 1 | 1.36 | 109 | 1.54 | 81.2 | inactive |
| KCNJ16 | 2 | -0.0479 | 80.9 | -0.75 | 110 | inactive |
| KCNJ16 | 3 | -0.454 | 72.9 | -0.341 | 89.1 | inactive |
| CD1A | 1 | 1.39 | 110 | 0.946 | 95.5 | inactive |
| CD1A | 2 | -0.302 | 75.9 | -0.251 | 90.6 | inactive |
| CD1A | 3 | 0.453 | 90.9 | 0.272 | 94.6 | inactive |
| SLC49A3 | 1 | -0.742 | 67.1 | 0.512 | 65.6 | inactive |
| SLC49A3 | 2 | 0.192 | 85.7 | -0.421 | 107 | inactive |
| SLC49A3 | 3 | 0.65 | 94.8 | 0.119 | 103 | inactive |
| SIAE | 1 | 1.14 | 105 | 4.06 | 40.1 | inactive |
| SIAE | 2 | -1.02 | 61.7 | 0.605 | 58.8 | inactive |
| SIAE | 3 | 0.488 | 91.6 | 0.317 | 94.1 | inactive |
| MAP3K7CL | 1 | 2.27 | 127 | 1.47 | 96.4 | inactive |
| MAP3K7CL | 2 | 0.719 | 96.2 | -0.338 | 117 | inactive |
| MAP3K7CL | 3 | 1.1 | 104 | 0.103 | 113 | inactive |
| INSYN1 | 1 | 0.113 | 84.1 | 0.359 | 85.5 | inactive |
| INSYN1 | 2 | 1.83 | 118 | 1.3 | 93.9 | inactive |
| INSYN1 | 3 | 0.373 | 89.3 | -0.0291 | 101 | inactive |
| RPS15 | 1 | -2.52 | 31.8 | -1.42 | 51.7 | inactive |
| RPS15 | 2 | -1.84 | 45.3 | -0.0427 | 51.2 | inactive |
| RPS15 | 3 | -0.679 | 68.4 | -1.03 | 100 | inactive |
| TRIM38 | 1 | 0.436 | 90.6 | 1.53 | 67.7 | inactive |
| TRIM38 | 2 | -0.418 | 73.6 | 0.739 | 67.7 | inactive |
| TRIM38 | 3 | 1.14 | 105 | 1 | 89.8 | inactive |
| LUC7L2 | 1 | 0.927 | 100 | 0.0945 | 109 | inactive |
| LUC7L2 | 2 | 2.22 | 126 | 1.28 | 101 | inactive |
| LUC7L2 | 3 | 1.57 | 113 | 0.283 | 117 | inactive |
| CCT7 | 1 | 1.01 | 102 | 1.5 | 76.8 | inactive |
| CCT7 | 2 | 3.23 | 146 | 2.22 | 91 | active |
| CCT7 | 3 | 3.57 | 153 | 3.06 | 76.3 | active |
| ZP3 | 1 | -0.844 | 65.1 | 1.29 | 51.9 | inactive |
| ZP3 | 2 | -0.828 | 65.4 | -0.622 | 86.1 | inactive |
| ZP3 | 3 | 0.951 | 101 | 1.79 | 70.3 | inactive |
| ZP1 | 1 | 0.227 | 86.4 | -0.192 | 102 | inactive |
| ZP1 | 2 | 1.94 | 120 | 1.31 | 95.4 | inactive |
| ZP1 | 3 | 0.575 | 93.3 | 1.03 | 79.5 | inactive |
| ST8SIA1 | 1 | -1.85 | 45 | -1.88 | 82.5 | inactive |
| ST8SIA1 | 2 | -0.537 | 71.2 | -0.796 | 98.1 | inactive |
| ST8SIA1 | 3 | -0.781 | 66.3 | -0.109 | 76.3 | inactive |
| ZNF731P | 1 | -0.122 | 79.5 | -0.13 | 91.9 | inactive |
| ZNF731P | 2 | 0.554 | 92.9 | 0.817 | 83.7 | inactive |
| ZNF731P | 3 | 1.15 | 105 | 0.885 | 92.7 | inactive |
| PPA2 | 1 | 2.13 | 124 | 1.24 | 100 | inactive |
| PPA2 | 2 | 0.98 | 101 | 0.748 | 93 | inactive |
| PPA2 | 3 | -0.0861 | 80.2 | -0.306 | 97.1 | inactive |
| ZFYVE21 | 1 | 0.891 | 99.6 | 0.252 | 104 | inactive |
| ZFYVE21 | 2 | -1.01 | 61.8 | -1.04 | 90.9 | inactive |
| ZFYVE21 | 3 | 1.12 | 104 | 0.0429 | 115 | inactive |

9 of these entries, set out differently:
NXPE4 #3 — total luciferase, z-score = 0.973; total luciferase, % of control = 101; luciferase per cell, z-score = 1.18; viable cells, % of control = 82.9; outcome = inactive
CTNNBIP1 #1 — total luciferase, z-score = -0.00585; total luciferase, % of control = 81.8; luciferase per cell, z-score = -0.721; viable cells, % of control = 110; outcome = inactive
CTNNBIP1 #2 — total luciferase, z-score = -0.317; total luciferase, % of control = 75.6; luciferase per cell, z-score = 0.275; viable cells, % of control = 78.6; outcome = inactive
CTNNBIP1 #3 — total luciferase, z-score = -0.33; total luciferase, % of control = 75.3; luciferase per cell, z-score = 0.451; viable cells, % of control = 74.7; outcome = inactive
DEFB113 #1 — total luciferase, z-score = 0.538; total luciferase, % of control = 92.6; luciferase per cell, z-score = 0.406; viable cells, % of control = 93; outcome = inactive
DEFB113 #2 — total luciferase, z-score = 0.0819; total luciferase, % of control = 83.5; luciferase per cell, z-score = 1.07; viable cells, % of control = 70.3; outcome = inactive
DEFB113 #3 — total luciferase, z-score = 3.81; total luciferase, % of control = 158; luciferase per cell, z-score = 3.34; viable cells, % of control = 73.1; outcome = active
MTCH1 #1 — total luciferase, z-score = -1.48; total luciferase, % of control = 52.4; luciferase per cell, z-score = -1.13; viable cells, % of control = 78.8; outcome = inactive
MTCH1 #2 — total luciferase, z-score = -1.12; total luciferase, % of control = 59.7; luciferase per cell, z-score = -1.56; viable cells, % of control = 101; outcome = inactive
